Reference: patent US20230075753A1
Results are given in words; binding and its absence hold for the method and conditions named. Some entries that bind do so weakly or less than the wild type.

Protein sequences, listed by entry. Tags and fused reporters are not part of them. Residues count along the entry.
UniProt Q9Y337, residues 67-293: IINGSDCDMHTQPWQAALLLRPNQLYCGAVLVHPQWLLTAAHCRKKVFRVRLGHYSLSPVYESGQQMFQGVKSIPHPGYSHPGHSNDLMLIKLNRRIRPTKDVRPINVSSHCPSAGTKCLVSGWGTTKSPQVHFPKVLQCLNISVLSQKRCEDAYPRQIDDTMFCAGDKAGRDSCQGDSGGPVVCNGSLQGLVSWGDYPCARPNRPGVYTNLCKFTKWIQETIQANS

Key:
[1] = biological target: Human KLK5 produced in HEK293 cells with N-terminal TEV-cleavable 8xHis-tag, tag removed (human) (UniProt Q9Y337); assay: size exclusion chromatography and SDS-PAGE of peak fractions; KLK5 pre-bound to LEKTI D5 or D8
[2] = biological target: Human KLK5 produced in HEK293 cells with N-terminal TEV-cleavable 8xHis-tag, tag removed (human) (UniProt Q9Y337); assay: SDS-PAGE of the SEC peak fractions of Fig. 1 (co-elution of Fab 10236 with KLK5 in the presence of LEKTI D5, lane 3, or LEKTI D8, lane 5)
[3] = biological target: Human KLK5 produced in HEK293 cells with N-terminal TEV-cleavable 8xHis-tag, tag removed (human) (UniProt Q9Y337); assay: SDS-PAGE of SEC peak fractions (FIG. 2 legend)
[4] = biological target: Human KLK5 produced in HEK293 cells with N-terminal TEV-cleavable 8xHis-tag, tag removed (human) (UniProt Q9Y337); assay: size exclusion chromatography (Superdex 200, PBS pH 7.2); Fab added to KLK5 already incubated with LEKTI D5 (1:1:1), ternary complex
[5] = biological target: Human KLK5 produced in HEK293 cells with N-terminal TEV-cleavable 8xHis-tag, tag removed (human) (UniProt Q9Y337); assay: size exclusion chromatography (Superdex 200, PBS pH 7.2); Fab added to KLK5 already incubated with LEKTI D8 (1:1:1), ternary complex

Measured: binding

B1: Rabbit Fab antibody 10236 (Fab, V domains shown)
VH: QSVEESGGRLVTPGTPLTLTCTVSGFPLSNYAMSWVRQAPGKGLEWIGDIYPSDIIDYASWAKGRFTISQTSTTVELKITGPTTEDTATYFCARDNNDYGLDIWGPGTLVTVSS
VL: AYDMTQTPASVEVAVGGTVTIKCQASQSISSWLAWYQQKPGQPPKLLIYLASTLASGVSSRFKGSGSGTQFTLTISGVECADAATYYCQQGYTNSNIINTFGGGTEVVVKR
binds: all assays above
